Reference: PubChem BioAssay AID1224830 (NIAID, 2016)

- Screen: 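Host factors that control LPS-induced TNF expression in human macrophages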 (primary screen)
- Cell system: human THP-1 monocytic leukaemia cells, TNF dual-luciferase reporter clone, PMA-differentiated to macrophage-like cells
- Reagents: siRNA pool against human genes, 50 nM
- Timing: LPS for 4 h, given about 3 days after siRNA transfection
- Treatment: bacterial LPS (TLR4 ligand), 10 ng/ml
- Read-out: 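TNF firefly reporter luminescence divided by renilla, normalised to the plate median, then turned into a robust z-score for each replicate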
- Scale: TNF reporter robust z-score: higher = stronger TNF reporter response to LPS
- Rule for the call: 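Each well counts as active if its z-score is over 2.8 or under -1.5; controls are left without a call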
Here is a random part of about 18,000 reagents tested. Of all reagents, about 2,900 (16%) are marked active. 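Calls are made per well; low scores hint the gene aids the LPS response, high scores that it dampens it.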 A number with no mark means an inactive call. Repeated entries: four replicate wells of each siRNA pool.

{"target":"RASA2","TNF reporter robust z-score":-0.57}
{"target":"RASA2","TNF reporter robust z-score":-0.37}
{"target":"RASA2","TNF reporter robust z-score":-0.15}
{"target":"RASA2","TNF reporter robust z-score":-0.42}
{"target":"ZNF135","TNF reporter robust z-score":-1.09}
{"target":"ZNF135","TNF reporter robust z-score":-0.94}
{"target":"ZNF135","TNF reporter robust z-score":-0.22}
{"target":"ZNF135","TNF reporter robust z-score":-0.05}
{"target":"CAMK4","TNF reporter robust z-score":-0.33}
{"target":"CAMK4","TNF reporter robust z-score":0.33}
{"target":"CAMK4","TNF reporter robust z-score":-0.58}
{"target":"CAMK4","TNF reporter robust z-score":2.13}
{"target":"RRP1B","TNF reporter robust z-score":-0.32}
{"target":"RRP1B","TNF reporter robust z-score":-0.43}
{"target":"RRP1B","TNF reporter robust z-score":-0.04}
{"target":"RRP1B","TNF reporter robust z-score":-0.24}
{"target":"EOMES","TNF reporter robust z-score":0.75}
{"target":"EOMES","TNF reporter robust z-score":1.18}
{"target":"EOMES","TNF reporter robust z-score":-0.1}
{"target":"EOMES","TNF reporter robust z-score":0.24}
{"target":"MAGEA10","TNF reporter robust z-score":0.31}
{"target":"MAGEA10","TNF reporter robust z-score":-0.29}
{"target":"MAGEA10","TNF reporter robust z-score":-0.08}
{"target":"MAGEA10","TNF reporter robust z-score":0.18}
{"target":"SLC22A15","TNF reporter robust z-score":-0.57}
{"target":"SLC22A15","TNF reporter robust z-score":-0.31}
{"target":"SLC22A15","TNF reporter robust z-score":-1.07}
{"target":"SLC22A15","TNF reporter robust z-score":-0.24}
{"target":"NTNG1","TNF reporter robust z-score":2.72}
{"target":"NTNG1","TNF reporter robust z-score":"3.09 (active)"}
{"target":"NTNG1","TNF reporter robust z-score":0.21}
{"target":"NTNG1","TNF reporter robust z-score":0.53}
